# Reference: patent US20210104294A1
# Molecular target: HLA-C*07:02 (in vitro binding assay) (human)
# Test: in vitro peptide-HLA binding assay
row,Binder,binding
1,AKAPHYVL [SEQ ID NO 173496],binds
2,NKGPSYGL [SEQ ID NO 173497],binds

# These are yes or no findings as the source states them, for the method shown. Binding calls can cover weak binding; strength is not graded here.
